Data as given in patent publication US6906100B2, “Compounds and compositions derived from olives and methods of the use thereof” (Lavipharm S.A., priority 2002, dated 2005).
At least one compound was matched to its structure with a doubt left.

System: Jurkat cells
Test: comet assay (single cell gel electrophoresis): protection of DNA of intact cells exposed to H2O2
Format: cell-based
Conditions: H2O2 generated by glucose oxidase, 10 min exposure
Description: In the analysis of the antioxidant activity of the extracts I, II, III and IV, as well as, of the pure Compounds 1-9, a method based on measuring the relative protection of DNA of intact cells was performed. This was done with the use of Jurkat cell cultures (a cell line of T-lymph-cells), which were grown in RPMI-1640 enriched with fetal bovine calf serum (10%), penicillin, streptomycin and glutamine. The cells were incubated with the extracts or the purified compounds in the presence of glucose oxidase (60 ng/100 ml) used for the generation of H2O2. After exposure of the cells to H2O2 for 10 min, the degree of DNA damage was evaluated using a specialized method, “single cell gel electrophoresis”, also known as the “comet assay”. The comet assay method is described in the following references: 1. […]
Jurkat cells—a cell line of lymphocytic origin—were exposed to continuously generated hydrogen peroxide, H2O2 and the effects of this treatment on cellular DNA was evaluated according to the references above. […]
The graphic results of the “comet assay” for the waste water extract (IV) and tyrosol (Compound 4), 2-(5-ethylidene-2-oxo-tetrahydropyran-4-yl) acetic acid (from the compound class of lactones or Compound 6) and hydroxytyrosol (Compound 7) are depicted below in FIGS. 3-6, respectively. […] The values are expressed as mean ±SD (n=3).

OCCc1ccc(O)c(O)c1 [hydroxytyrosol]
protective activity on cells against oxidative stress (decrease of induced DNA damage): strong protective activity
